{"source": "PubChem BioAssay AID1671195 (Yale University, 2021)", "aim": "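Knockdowns that increase or decrease uptake of fluorescent LDL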 (primary screen)", "cell system": "human Huh7 hepatoma cells", "reagents": "siRNA pool against human genes, 18 nM", "timing": "about 2 to 2.5 days of knockdown, then 8 h LDL uptake", "conditions": "DiI-labelled LDL at 30 µg/ml for 8 h, in lipoprotein-deficient serum medium", "read-out": "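Per-cell DiI-LDL intensity by automated imaging; well means scaled to the plate median and given as a robust z-score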", "reading the numbers": "robust z-score: higher = more LDL uptake after knockdown", "rule for the call": "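a gene counts as active if at least two replicate z-scores exceed ±2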", "note": "Shown is a random part of about 22,000 deposited reagents. In the full data, about 1,510 (6.9%) got an active call. 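Active includes knockdowns raising or lowering LDL uptake; positive z-scores mean more uptake, negative mean less.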 Entries without a mark were called inactive."}
{"Target gene": "RPL7A (GeneID 6130)", "robust z-score, replicate 1": -1.91, "robust z-score, replicate 2": -1.21, "robust z-score, replicate 3": -1.88}
{"Target gene": "MDM4 (GeneID 4194)", "robust z-score, replicate 1": 1.2, "robust z-score, replicate 2": 1.37, "robust z-score, replicate 3": 0.734}
{"Target gene": "LINC00857 (GeneID 439990)", "robust z-score, replicate 1": 0.0244, "robust z-score, replicate 2": -0.262, "robust z-score, replicate 3": -0.382}
{"Target gene": "KDM3A (GeneID 55818)", "robust z-score, replicate 1": -0.397, "robust z-score, replicate 2": -0.347, "robust z-score, replicate 3": -0.414}
{"Target gene": "ODAPH (GeneID 152816)", "robust z-score, replicate 1": -1.54, "robust z-score, replicate 2": -1.79, "robust z-score, replicate 3": -1.69}
{"Target gene": "TRNT1 (GeneID 51095)", "robust z-score, replicate 1": 1.35, "robust z-score, replicate 2": 0.831, "robust z-score, replicate 3": 1.24}
{"Target gene": "TOR3A (GeneID 64222)", "robust z-score, replicate 1": -1.34, "robust z-score, replicate 2": -1.54, "robust z-score, replicate 3": -1.67}
{"Target gene": "TBC1D2 (GeneID 55357)", "robust z-score, replicate 1": -0.769, "robust z-score, replicate 2": -1.07, "robust z-score, replicate 3": -0.698}
{"Target gene": "RNGTT (GeneID 8732)", "robust z-score, replicate 1": 1.36, "robust z-score, replicate 2": 1.24, "robust z-score, replicate 3": 0.959}

Continued; the last 2 above are carried over.
{"Target gene": "TBC1D2 (GeneID 55357)", "robust z-score, replicate 1": -0.769, "robust z-score, replicate 2": -1.07, "robust z-score, replicate 3": -0.698}
{"Target gene": "RNGTT (GeneID 8732)", "robust z-score, replicate 1": 1.36, "robust z-score, replicate 2": 1.24, "robust z-score, replicate 3": 0.959}
{"Target gene": "ACCSL (GeneID 390110)", "robust z-score, replicate 1": 1.02, "robust z-score, replicate 2": 0.893, "robust z-score, replicate 3": 0.79}
{"Target gene": "PATZ1 (GeneID 23598)", "robust z-score, replicate 1": "-2.05 (active)", "robust z-score, replicate 2": -2.18, "robust z-score, replicate 3": -2}
{"Target gene": "LINC02396 (GeneID 283332)", "robust z-score, replicate 1": -1.25, "robust z-score, replicate 2": -0.976, "robust z-score, replicate 3": -1.02}
{"Target gene": "CPSF4 (GeneID 10898)", "robust z-score, replicate 1": 1.49, "robust z-score, replicate 2": 0.371, "robust z-score, replicate 3": 1.08}
{"Target gene": "PABIR3 (GeneID 159091)", "robust z-score, replicate 1": -0.299, "robust z-score, replicate 2": -0.597, "robust z-score, replicate 3": 0.222}
{"Target gene": "FKBP4P2 (GeneID 389727)", "robust z-score, replicate 1": "2.58 (active)", "robust z-score, replicate 2": 2.82, "robust z-score, replicate 3": 2.51}
{"Target gene": "YEATS2 (GeneID 55689)", "robust z-score, replicate 1": -2.08, "robust z-score, replicate 2": -0.0566, "robust z-score, replicate 3": -0.456}
